According to patent publication US8183048B2, “Assay for screening/ranking antioxidants based on their effects on membrane sterol lateral organization” (Temple University- Of the Commonwealth System of Higher …, priority 2007, dated 2012):
“Also recorded” adds a separate entry of the source.

Test: Steady-state anisotropy of DHE fluorescence vs antioxidant dose
Assay type: physicochemical
Details: DMPC/DHE LUVs, 21.0 mol % DHE, 37° C., FIG. 7
Description: Steady-state anisotropy measurements were made at 37° C. on an ISS K2 fluorometer (ISS, Champaign, Ill.). Excitation wavelength used was 325 nm, with a bandwidth of 8 nm. Emission was measured through a KV-408 filter with λex=399 nm. Blank readings from membranes without probes were subtracted from the sample readings. Steady-state anisotropy (r) gives information about membrane packing in the vicinity of the probe molecule. […] DMPC/DHE LUVs (21.0 mol % DHE) were incubated with increasing doses of either ascorbic acid or ascorbyl palmitate, and steady-state anisotropy measurements were recorded (FIG. 7). The addition of water-soluble ascorbic acid had no effect on the anisotropy value, even at high doses. […] Assuming that the fluorescence lifetime of DHE is invariant with antioxidant dose, the anisotropy data (FIG. 7) indicate a decrease in membrane free volume as more ascorbyl palmitate molecules partition into the bilayer. The insertion of the palmitate chain also changes membrane composition, thus altering the actual sterol mole percentage in the membrane and perturbing the dynamic equilibrium of membrane lateral organization. As [ascorbyl palmitate] increases, the lipid bilayer becomes increasingly perturbed, and membrane lateral organization is disrupted. Therefore, the biphasic change in lag phase at Cr is abolished or obliterated above Cth.

SMILES | effect of increasing antioxidant dose on steady-state anisotropy (r) of DHE fluorescence | effect of increasing antioxidant dose on steady-state anisotropy (r) of DHE fluorescence (listed as Ascorbyl palmitate)
CCCCCCCCCCCCCCCC(=O)OC[C@H](O)[C@H]1OC(=O)C(O)=C1O [ascorbyl palmitate] | significant increase | steady increase
O=C1O[C@H]([C@@H](O)CO)C(O)=C1O [ascorbic acid] | almost invariant; also recorded: no effect | 
